Data source: PubChem BioAssay AID652243 (Drosophila RNAi Screening Center, 2013)
The screen tested about 24,000 reagents; this is a random part of those that have a named target and a result. Over the whole deposit, 246 (1%) were called active. 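Plates not normalised; calls are printed but the firefly/Renilla ratio behind them is not deposited; fold cut for lowering reported inconsistently.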 Raw values vary from plate to plate and are shown uncorrected. Not stated in the record: the amount of reagent.

- Aim: 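Knock-downs that decrease or increase androgen receptor reporter signal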 (primary screen)
- Cell system: Drosophila S2R+ cells
- Reagents: long dsRNA against Drosophila genes
- Time to read-out: 72 h (48 h, then 24 h hormone)
- Challenge: synthetic androgen R1881 at 10 nM for 24 h
- Read-out: 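Firefly light from an androgen-responsive reporter and Renilla control light per well, raw and unnormalised, for each of two replicates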
- Scale: firefly reporter light: higher = more light from androgen-responsive reporter; Renilla control light: higher = more constitutive control signal (cell number, transfection)
- Rule for the call: 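Hit when the log firefly-to-Renilla ratio dropped or increased by a fixed fold versus the mean of GFP or LacZ controls across duplicate plates; lowering cut given as 1.5 and as 3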
- Calls: active = hit: reporter lowered or raised; inactive = no hit

| predicted target | dsRNA | firefly reporter light, replicate 1 | firefly reporter light, replicate 2 | Renilla control light, replicate 1 | Renilla control light, replicate 2 | outcome |
| --- | --- | --- | --- | --- | --- | --- |
| Lasp | DRSC10379 | 2.53e5 | 1.47e5 | 1.45e6 | 1.02e6 | inactive |
| Lasp | DRSC23555 | 3.09e5 | 3.22e5 | 4.51e5 | 5.06e5 | inactive |
| CG33914 | DRSC38887 | 9.14e5 | 6.78e5 | 2.18e6 | 1.75e6 | inactive |
| CG12236 | DRSC17831 | 2.51e5 | 2.72e5 | 2.14e6 | 2.54e6 | inactive |
| CG12236 | DRSC25773 | 2.23e5 | 3.44e5 | 6.01e5 | 3.65e5 | inactive |
| CG44838 | DRSC10371 | 6.86e5 | 5.58e5 | 1.31e6 | 1.29e6 | inactive |
| CG44838 | DRSC28801 | 5.39e5 | 4.32e5 | 8.99e5 | 7.89e5 | inactive |
| CG34034 | DRSC38815 | 1.21e6 | 1.00e6 | 2.15e6 | 1.96e6 | inactive |
| Asator | DRSC17136 | 2.15e5 | 2.17e5 | 2.56e6 | 2.32e6 | inactive |
| Asator | DRSC36963 | – | – | – | – | inactive |
| Asator | DRSC36964 | – | – | – | – | inactive |
| CG8641 | DRSC11028 | 1.85e5 | 2.11e5 | 2.16e6 | 2.91e6 | inactive |
| lncRNA:CR30055 (long non-coding RNA:CR30055) | DRSC22439 | 3.37e5 | 7.23e5 | 4.81e5 | 1.09e6 | inactive |
| lncRNA:CR30055 (long non-coding RNA:CR30055) | DRSC26506 | 2.83e5 | 2.44e5 | 3.42e5 | 3.81e5 | inactive |
| CG15772 | DRSC18078 | 1.69e5 | 2.73e5 | 1.84e6 | 1.56e6 | inactive |
| Lam (Lamin) | DRSC03359 | 85457 | 91900 | 4.90e5 | 4.76e5 | inactive |
| Lam (Lamin) | DRSC28152 | 4.57e5 | 3.70e5 | 1.54e6 | 1.39e6 | inactive |
| TwdlW (TweedleW) | DRSC15540 | 1.33e5 | 1.68e5 | 1.81e6 | 2.33e6 | inactive |
| TwdlW (TweedleW) | DRSC25402 | 7.84e5 | 8.59e5 | 1.14e6 | 1.11e6 | inactive |
| na (narrow abdomen) | DRSC19639 | 3.11e5 | 3.93e5 | 4.20e6 | 4.10e6 | inactive |
| na (narrow abdomen) | DRSC29828 | 3.62e5 | 4.21e5 | 1.44e6 | 1.45e6 | inactive |
| CG8260 | DRSC20098 | 6.64e5 | 4.84e5 | 6.42e6 | 4.26e6 | inactive |
| CG43312 | DRSC11559 | 4.86e5 | 6.13e5 | 5.00e5 | 6.07e5 | inactive |
| CG42760 (retired record) | DRSC39067 | 4.88e5 | 4.19e5 | 1.12e6 | 1.22e6 | inactive |
| CG13613 | DRSC14616 | 1.47e5 | 1.99e5 | 2.07e6 | 2.00e6 | inactive |
| fan (farinelli) | DRSC10930 | 2.29e5 | 1.54e5 | 2.30e6 | 1.26e6 | inactive |
| CG14147 | DRSC10149 | 1.51e5 | 1.21e5 | 1.17e6 | 8.67e5 | inactive |
| CG31693 | DRSC03674 | 3.60e5 | 5.88e5 | 3.61e5 | 4.98e5 | inactive |
| Mmp2 (Matrix metalloproteinase 2) | DRSC06698 | 4.59e5 | 3.44e5 | 2.85e6 | 2.29e6 | inactive |
| Mmp2 (Matrix metalloproteinase 2) | DRSC22024 | 6.49e5 | 6.29e5 | 2.27e6 | 1.71e6 | inactive |
| Mmp2 (Matrix metalloproteinase 2) | DRSC25458 | 3.73e5 | 4.43e5 | 4.67e5 | 5.41e5 | inactive |
| MED25 (Mediator complex subunit 25) | DRSC22981 | 5.76e5 | 4.95e5 | 1.45e6 | 1.12e6 | inactive |
| MED25 (Mediator complex subunit 25) | DRSC25776 | 1.77e5 | 2.06e5 | 6.74e5 | 3.74e5 | inactive |
| Irk1 (Inwardly rectifying potassium channel 1) | DRSC14686 | 2.47e5 | 2.20e5 | 2.25e6 | 2.26e6 | inactive |
| Irk1 (Inwardly rectifying potassium channel 1) | DRSC16106 | 2.72e5 | 2.77e5 | 2.13e6 | 2.56e6 | inactive |
| Irk1 (Inwardly rectifying potassium channel 1) | DRSC28063 | 4.79e5 | 4.93e5 | 1.58e6 | 1.49e6 | inactive |
| CG15529 | DRSC15066 | 1.42e5 | 2.02e5 | 1.82e6 | 2.67e6 | inactive |
| Cyp6d5 (Cytochrome P450 6d5) | DRSC16634 | 1.16e5 | 79074 | 4.02e5 | 4.05e5 | inactive |
| Cyp6d5 (Cytochrome P450 6d5) | DRSC29717 | 4.55e5 | 3.50e5 | 1.13e6 | 1.36e6 | inactive |
| chm (chameau) | DRSC03341 | 8.20e5 | 8.60e5 | 2.09e6 | 1.72e6 | inactive |
| chm (chameau) | DRSC24941 | 8.40e5 | 4.25e5 | 8.34e5 | 4.68e5 | inactive |
| sNPF (short neuropeptide F precursor) | DRSC23403 | 3.80e5 | 3.20e5 | 7.66e5 | 5.25e5 | inactive |
| Obp46a (Odorant-binding protein 46a) | DRSC06220 | 3.23e5 | 2.60e5 | 2.48e6 | 1.99e6 | inactive |
| CG44098 | DRSC12214 | 7.00e5 | 9.36e5 | 1.35e6 | 2.29e6 | inactive |
| CG44098 | DRSC12240 | 69468 | 94760 | 1.92e6 | 1.81e6 | inactive |
| CG44098 | DRSC12327 | 91612 | 96913 | 2.18e6 | 2.07e6 | inactive |
| CG44098 | DRSC23643 | 4.10e5 | 4.58e5 | 6.53e5 | 7.04e5 | inactive |
| CG44098 | DRSC24166 | 8.62e5 | 8.25e5 | 1.22e6 | 1.29e6 | inactive |
| CG44098 | DRSC26836 | 4.52e5 | 4.24e5 | 1.26e6 | 9.29e5 | inactive |
| CG33998 | DRSC05747 | 6.31e5 | 6.63e5 | 9.37e5 | 7.08e5 | inactive |
| CG11825 | DRSC06090 | 3.21e5 | 2.09e5 | 1.85e6 | 1.11e6 | inactive |
| CG11825 | DRSC27780 | 2.07e5 | 1.60e5 | 6.68e5 | 7.59e5 | inactive |
| Phk-3 (Pherokine 3) | DRSC04547 | 3.72e5 | 5.43e5 | 1.93e6 | 2.26e6 | inactive |
| CG1113 | DRSC12163 | 34083 | 41512 | 1.32e6 | 9.39e5 | inactive |
| Polr3G (RNA polymerase III subunit G) | DRSC21511 | 9.15e5 | 6.45e5 | 1.18e6 | 1.04e6 | inactive |
| Pect (Phosphoethanolamine cytidylyltransferase) | DRSC02867 | 5.84e5 | 5.96e5 | 1.15e6 | 1.69e6 | inactive |
| Pect (Phosphoethanolamine cytidylyltransferase) | DRSC02868 | 2.47e5 | 2.18e5 | 1.19e6 | 1.67e6 | inactive |
| Cyp4aa1 (Cytochrome P450 4aa1) | DRSC07368 | 58555 | 44502 | 9.80e5 | 9.80e5 | inactive |
| Cyp4aa1 (Cytochrome P450 4aa1) | DRSC27648 | 2.98e5 | 2.56e5 | 7.18e5 | 6.97e5 | inactive |
| Cyp12a4 (Cytochrome P450 12a4) | DRSC16620 | 2.38e5 | 2.46e5 | 2.80e6 | 3.17e6 | inactive |
| Cyp12a4 (Cytochrome P450 12a4) | DRSC24072 | 3.85e5 | 5.24e5 | 3.79e5 | 5.61e5 | inactive |
| Dcps (Decapping enzyme, scavenger) | DRSC12299 | 50353 | 42439 | 4.33e5 | 4.59e5 | inactive |
| CG13192 | DRSC06317 | 1.74e5 | 1.25e5 | 1.18e6 | 1.14e6 | inactive |
| mor (moira) | DRSC15378 | 2.24e5 | 2.41e5 | 1.74e6 | 1.74e6 | inactive |
| mor (moira) | DRSC27980 | 7.01e5 | 5.05e5 | 1.54e6 | 1.21e6 | inactive |
| Sptr (Sepiapterin reductase) | DRSC18719 | 94685 | 97550 | 5.71e5 | 5.54e5 | inactive |
| CG30283 | DRSC04071 | 2.33e5 | 2.74e5 | 1.90e6 | 1.63e6 | inactive |
| CG30283 | DRSC24411 | 6147 | 6979 | 177 | – | inactive |
| CG11699 | DRSC19419 | 6.83e5 | 5.85e5 | 2.74e6 | 2.48e6 | inactive |
| CG11699 | DRSC27489 | 1.58e5 | 1.97e5 | 3.91e5 | 5.18e5 | inactive |
| CG31111 | DRSC14649 | 1.44e5 | 1.13e5 | 1.74e6 | 1.58e6 | inactive |
| mrj | DRSC22592 | 8.87e5 | 6.59e5 | 5.74e5 | 5.15e5 | inactive |
| mrj | DRSC25295 | 3.88e5 | 3.13e5 | 5.14e5 | 4.53e5 | inactive |
| Tep4 (Thioester-containing protein 4) | DRSC03453 | 66124 | 1.23e5 | 8.70e5 | 1.40e6 | inactive |

Records above whose gene name begins with P or p (4):
| predicted target | dsRNA | firefly reporter light, replicate 1 | firefly reporter light, replicate 2 | Renilla control light, replicate 1 | Renilla control light, replicate 2 | outcome |
| --- | --- | --- | --- | --- | --- | --- |
| Phk-3 (Pherokine 3) | DRSC04547 | 3.72e5 | 5.43e5 | 1.93e6 | 2.26e6 | inactive |
| Polr3G (RNA polymerase III subunit G) | DRSC21511 | 9.15e5 | 6.45e5 | 1.18e6 | 1.04e6 | inactive |
| Pect (Phosphoethanolamine cytidylyltransferase) | DRSC02867 | 5.84e5 | 5.96e5 | 1.15e6 | 1.69e6 | inactive |
| Pect (Phosphoethanolamine cytidylyltransferase) | DRSC02868 | 2.47e5 | 2.18e5 | 1.19e6 | 1.67e6 | inactive |
